Results reported in publication PMC12431657, “Discovery and mechanistic insights of dibenzoylmethane as a broad spectrum inhibitor of coronavirus” (PLOS Pathogens, 2025).
Counter-ions that a name gives are not always drawn. Like-named read-outs stand apart in the source and are kept apart here. Screen size: about 3,300 compounds; about 95 (3%) showed an effect of 50% or more. The list shows a part of the results.

Test system: HCoV-229E
Parameters: species or system Huh-7; HTS, protection from HCoV-229E induced cell death, luminescent cell viability (CellCounting-Lite 2.0), inhibition rate
Conditions: 24 h post infection, 1 h compound pre-incubation, 10 µM, inhibitor

| Compound | 229E Inhibition rate (229E Inhibition rate, 24 h) [%] | 229E Inhibition rate [%] |
| --- | --- | --- |
| O=P(O)(O)O[C@H]1[C@H](OP(=O)(O)O)[C@@H](OP(=O)(O)O)[C@H](OP(=O)(O)O)[C@@H](OP(=O)(O)O)[C@H]1OP(=O)(O)O [Phytic acid (potassium)] | 9.9 | – |
| COc1cc(O)cc(CCc2ccc(O)c(OC)c2)c1 [Gigantol] | – | 45.6 |
| N[C@H](CO)C(=O)O [D-Serine] | – | 8.5 |
| CCNC(=O)CC[C@H](N)C(=O)O [L-Theanine] | – | 8.3 |
| OC[C@H]1O[C@@H]2O[C@H]3[C@H](O)[C@@H](O)[C@@H](O[C@H]4[C@H](O)[C@@H](O)[C@@H](O[C@H]5[C@H](O)[C@@H](O)[C@@H](O[C@H]6[C@H](O)[C@@H](O)[C@@H](O[C@H]7[C@H](O)[C@@H](O)[C@@H](O[C@H]8[C@H](O)[C@@H](O)[C@@H](O[C@H]1[C@H](O)[C@H]2O)O[C@@H]8CO)O[C@@H]7CO)O[C@@H]6CO)O[C@@H]5CO)O[C@@H]4CO)O[C@@H]3CO [β-Cyclodextrin] | – | 13.5 |
| CC(C)=CCCC(C)CC=O (centres unmarked) [Citronellal] | – | 20.2 |
| C[C@@H]1[C@H](O)[C@@H](C)/C=C/C=C/C=C/C=C/C=C/C=C/C=C/[C@H](O[C@@H]2O[C@H](C)[C@@H](O)[C@H](N)[C@@H]2O)C[C@@H]2O[C@](O)(C[C@@H](O)C[C@@H](O)[C@H](O)CC[C@@H](O)C[C@@H](O)CC(=O)O[C@H]1C)C[C@H](O)[C@H]2C(=O)O [amphotericin B] | – | 26.6 |
| CC(=O)CCc1ccc(O)cc1 [Raspberry ketone] | – | 7.5 |
| CC1=CC[C@@H](C(C)(C)O)CC1 [(-)-α-Terpineol] | 35.7 | – |
| CC[C@H]1OC(=O)C[C@@H](O)[C@H](C)[C@@H](O[C@@H]2O[C@H](C)[C@@H](O[C@H]3C[C@@](C)(O)[C@@H](O)[C@H](C)O3)[C@H](N(C)C)[C@H]2O)[C@@H](CC=O)C[C@@H](C)C(=O)/C=C/C(C)=C/[C@@H]1CO[C@@H]1O[C@H](C)[C@@H](O)[C@@H](OC)[C@H]1OC [Tylosin] | 21.2 | – |
| O=C1CCCc2c(O)cccc21 [5-Hydroxy-1-tetralone] | – | 49.2 |
| C=C1C(=O)O[C@@H]2/C=C(/C)C[C@H]3C=C(C[C@H](OC(=O)/C(C)=C\C)[C@@H]12)C(=O)O3 [Scabertopin] | – | 0 |
| CC(C)(O[C@@H]1O[C@H](CO)[C@@H](O)[C@H](O)[C@H]1O)[C@H]1Cc2cc3ccc(=O)oc3cc2O1 [Nodakenin] | – | 11.2 |
| COc1cc2ccc(=O)oc2c(O[C@@H]2O[C@H](CO)[C@@H](O)[C@H](O)[C@H]2O)c1O [Fraxin] | – | 10.9 |
| O=C1C[C@@](O)(C(=O)O)[C@@H](C(=O)O)O1 [(-)-Hydroxycitric acid lactone] | – | 7.8 |
| CC(=O)O[C@@H](C[C@@H](C)C1=C2C[C@H](O)[C@H]3[C@@]4(C)CCC(=O)C(C)(C)[C@@H]4CC[C@]3(C)[C@@]2(C)CC1=O)[C@H]1OC1(C)C [Alisol C 23-acetate] | – | 8.3 |
| CCCCC/C=C/C(=O)O [(E)-Oct-2-enoic acid] | – | 21.4 |
| CC(O)CC(=O)O (centres unmarked) [3-Hydroxybutyric acid] | – | 11.2 |
| O=C(O)CCCCCCCCCCCO [12-Hydroxydodecanoic acid] | – | 18.7 |

A second format for 4 compounds above:
Compound	229E Inhibition rate (229E Inhibition rate, 24 h) [%]	229E Inhibition rate [%]
OC[C@H]1O[C@@H]2O[C@H]3[C@H](O)[C@@H](O)[C@@H](O[C@H]4[C@H](O)[C@@H](O)[C@@H](O[C@H]5[C@H](O)[C@@H](O)[C@@H](O[C@H]6[C@H](O)[C@@H](O)[C@@H](O[C@H]7[C@H](O)[C@@H](O)[C@@H](O[C@H]8[C@H](O)[C@@H](O)[C@@H](O[C@H]1[C@H](O)[C@H]2O)O[C@@H]8CO)O[C@@H]7CO)O[C@@H]6CO)O[C@@H]5CO)O[C@@H]4CO)O[C@@H]3CO [β-Cyclodextrin]	–	13.5
CC(C)=CCCC(C)CC=O (centres unmarked) [Citronellal]	–	20.2
C[C@@H]1[C@H](O)[C@@H](C)/C=C/C=C/C=C/C=C/C=C/C=C/C=C/[C@H](O[C@@H]2O[C@H](C)[C@@H](O)[C@H](N)[C@@H]2O)C[C@@H]2O[C@](O)(C[C@@H](O)C[C@@H](O)[C@H](O)CC[C@@H](O)C[C@@H](O)CC(=O)O[C@H]1C)C[C@H](O)[C@H]2C(=O)O [amphotericin B]	–	26.6
CC(=O)CCc1ccc(O)cc1 [Raspberry ketone]	–	7.5

(next part)

| Compound | 229E Inhibition rate (229E Inhibition rate, 24 h) [%] | 229E Inhibition rate [%] |
| --- | --- | --- |
| CC1(C)CC[C@]2(C(=O)O)CC[C@]3(C)C(=CC[C@@H]4[C@@]5(C)CC[C@H](O[C@@H]6O[C@H](C(=O)O)[C@@H](O)[C@H](O[C@@H]7OC[C@@H](O)[C@H](O)[C@H]7O[C@@H]7O[C@H](CO)[C@@H](O)[C@H](O)[C@H]7O)[C@H]6O)C(C)(C)[C@@H]5CC[C@]43C)[C@@H]2C1 [Oleanolic acid-3-O-glucosyl(1-2)xylyl(1-3)glucosiduronic acid] | – | 6.1 |
| CCCCCCCCCCCCCCCC(=O)NCCO [Palmitoylethanolamide] | – | 7.7 |
| O=C1OC[C@H]2OC(O)[C@H](O)[C@@H](O)[C@@H]2OC(=O)c2cc(O)c(O)c(O)c2-c2c(O)c(O)c3oc(=O)c4c(c(O)c(O)c5oc(=O)c2c3c54)-c2c1cc(O)c(O)c2O (mixture of isomers) [Punicalin] | – | 14.2 |
| CCc1ccc(O)cc1O [4-Ethylresorcinol] | – | 19.1 |
| CC(C)=CCC[C@](C)(O[C@@H]1O[C@H](CO)[C@@H](O)[C@H](O)[C@H]1O)[C@H]1CC[C@]2(C)[C@@H]1[C@H](O)C[C@@H]1[C@@]3(C)CC[C@H](O[C@@H]4O[C@H](CO)[C@@H](O)[C@H](O)[C@H]4O)C(C)(C)[C@@H]3CC[C@]12C [Ginsenoside F2] | – | 9.4 |
| CC/C=C\CCO [cis-3-Hexen-1-ol] | – | 49.8 |
| COC(=O)C(O)CC(C)C (centres unmarked) [Methyl 2-hydroxy-4-methylvalerate] | – | 12.9 |
| O=c1c(O)c(-c2ccc(O)c(O)c2)oc2cc(O[C@@H]3O[C@H](CO)[C@@H](O)[C@H](O)[C@H]3O)c(O)c(O)c12 [Quercetagitrin] | – | 11 |
| CCCCCCCC/C=C\CCCCCCCCCCCCCC(=O)O [Nervonic acid] | – | 18.2 |
| CCOCC(=O)O [Ethoxyacetic acid] | – | 23.2 |
| CC(C)=CC(=O)O[C@H]1Cc2cc3ccc(=O)oc3cc2OC1(C)C [Decursin] | – | 2.9 |
| CC=C1[C@H](O[C@@H]2O[C@H](CO)[C@@H](O)[C@H](O)[C@H]2O)OC=C(C(=O)OC)[C@H]1CC(=O)OC[C@H]1O[C@@H](OCCc2ccc(O)cc2)[C@H](O)[C@@H](O)[C@@H]1O (stereo in doubt) [Specnuezhenide] | – | 7.4 |
| CSCCC(=O)O [3-(Methylthio)propionic acid] | – | 10.9 |
| C[C@@H]1O[C@@H](OCCC(=O)O)[C@H](O)C[C@H]1O [Ascr#5] | – | 9 |
| CC(=O)[C@H]1CC[C@H]2[C@@H]3CC=C4C[C@@H](OS(=O)(=O)O)CC[C@]4(C)[C@H]3CC[C@]12C [Pregnenolone monosulfate (sodium)] | – | 55.9 |
| O=c1cc(-c2ccc(O)c(O)c2)oc2c([C@@H]3O[C@H](CO)[C@@H](O)[C@H](O)[C@H]3O[C@H]3O[C@@H](CO)[C@@H](O)[C@@H](O)[C@@H]3O)c(O)cc(O)c12 [2"-O-beta-L-galactopyranosylorientin] | – | 6.8 |
| COc1c(O[C@@H]2O[C@H](CO)[C@@H](O)[C@H](O)[C@H]2O)cc2occ(-c3ccc(O)cc3)c(=O)c2c1O [Tectoridin] | – | 11.2 |
| C=CC1(C)CCC(C(C)(C)O)O1 (centres unmarked) [Linalool oxide] | – | 6.4 |
| COc1cc(OC)c2c(=O)cc(-c3ccc(OC)c(OC)c3)oc2c1 [5,7,3',4'-Tetramethoxyflavone] | – | 18.2 |

| Compound | 229E Inhibition rate (229E Inhibition rate, 24 h) [%] | 229E Inhibition rate [%] |
| --- | --- | --- |
| O=c1c2ccccc2oc2ccccc12 [Xanthone] | – | 16.6 |
| O=C(O)C/C=C/CC(=O)O [Trans-2-butene-1,4-dicarboxylic acid] | – | 11.8 |
| NC(COP(=O)(O)O)C(=O)O (racemic) [DL-O-Phosphoserine] | – | 13.2 |
| CO[C@H]1O[C@@H]2O[C@@]3(C)CC[C@H]4[C@H](C)CC[C@@H]([C@H]1C)[C@@]24OO3 [Artemether] | – | 15.9 |
| O=C1C[C@@H](c2ccc(O)cc2)Oc2cc(O[C@@H]3O[C@H](CO)[C@@H](O)[C@H](O)[C@H]3O[C@@H]3OC[C@](O)(CO)[C@H]3O)ccc21 [Liquiritigenin-7-O-β-D-glucopyranosyl-(1→2)-β-D-apiofuranoside] | – | 21.1 |
| CCCCCCCCC(=O)O [Nonanoic acid] | – | 10.9 |
| CN(C)[C@@H]1C(O)=C(C(N)=O)C(=O)[C@@]2(O)C(O)=C3C(=O)c4c(O)ccc(Cl)c4[C@@H](O)[C@H]3C[C@@H]12 [Demeclocycline (hydrochloride)] | – | 0 |
| CC(=O)N[C@@H](C)C(=O)O [Ac-Ala-OH] | – | 13.2 |
| CC(C)C12CCC(C)(CC1)O2 [1,4-Cineole] | – | 14.2 |
| COc1ccccc1C(=O)O [2-Methoxybenzoic acid] | – | 19.8 |
| Oc1cc(O)c2c(c1)O[C@@]1(c3ccc(O)c(O)c3)Oc3cc(O)c4c(c3[C@@H]2[C@H]1O)O[C@H](c1ccc(O)c(O)c1)[C@H](O)[C@H]4c1c(O)cc(O)c2c1O[C@H](c1ccc(O)c(O)c1)[C@H](O)C2 [Cinnamtannin B-1] | – | 6.4 |
| OCCc1ccc(O)cc1 [Tyrosol] | – | 20 |
| O=C(/C=C/c1ccc(O)cc1)OC[C@H]1O[C@@H](Oc2c(-c3ccc(O)cc3)oc3cc(O)cc(O)c3c2=O)[C@H](O)[C@@H](O)[C@@H]1O [Tiliroside] | – | 9.9 |
| O=C(O)CCCCCCCCCCCC(=O)O [Tridecanedioic acid] | – | 19.9 |
| N#CS [Sodium thiocyanate] | – | 15 |
| OCc1ccoc1 [3-Furanmethanol] | – | 0 |
| C[C@@H]1O[C@@H](Oc2cc(O)c3c(=O)c(O[C@@H]4O[C@@H](C)[C@H](O)[C@@H](O)[C@H]4O)c(-c4ccc(O)cc4)oc3c2)[C@H](O)[C@H](O)[C@H]1O [Kaempferitrin] | – | 13.1 |
| C=C1C[C@@]23CC[C@H]4[C@@](C)(CCC[C@@]4(C)C(=O)O[C@@H]4O[C@H](CO)[C@@H](O)[C@H](O)[C@H]4O[C@@H]4O[C@H](CO)[C@@H](O)[C@H](O)[C@H]4O)[C@@H]2CC[C@]1(O[C@@H]1O[C@H](CO)[C@@H](O)[C@H](O[C@@H]2O[C@H](CO)[C@@H](O)[C@H](O)[C@H]2O)[C@H]1O[C@@H]1O[C@H](CO)[C@@H](O)[C@H](O)[C@H]1O)C3 [Rebaudioside D] | – | 21.7 |
